Measured values as given in PMC12431657, “Discovery and mechanistic insights of dibenzoylmethane as a broad spectrum inhibitor of coronavirus” (PLOS Pathogens, 2025).
Where a name gives a salt, the structure may show the parent alone. Read-outs that look alike come from different tables or passages of the source. About 95 (3%) of roughly 3,300 compounds showed an effect of 50% or more. Some of the results follow. Peptide text beside a SMILES is read from it.

System: HCoV-229E
Parameters: species or system Huh-7; HTS, protection from HCoV-229E induced cell death, luminescent cell viability (CellCounting-Lite 2.0), inhibition rate
Conditions: 24 h post infection, 1 h compound pre-incubation, 10 µM, inhibitor

Row | SMILES | 229E Inhibition rate (229E Inhibition rate, 24 h) [%] | 229E Inhibition rate [%]
1 | Cc1ncc(COP(=O)(O)O)c(C=O)c1O [Pyridoxal phosphate] | 10 | –
2 | NC(=O)c1ccc[n+]([C@@H]2O[C@H](COP(=O)([O-])O)[C@@H](O)[C@H]2O)c1 [β-Nicotinamide mononucleotide] | – | 11.5
3 | O=C(O)c1cc(O)c2c(c1)[C@H]([C@H]1c3cc(C(=O)O)cc(O)c3C(=O)c3c(O[C@@H]4O[C@H](CO)[C@@H](O)[C@H](O)[C@H]4O)cccc31)c1cccc(O[C@@H]3O[C@H](CO)[C@@H](O)[C@H](O)[C@H]3O)c1C2=O [Sennoside A] | – | 31.3
4 | CNCC(O)c1ccc(O)cc1 (centres unmarked) [p-Synephrine] | 16.1 | –
5 | Nc1nc2ncc([C@H](O)[C@H](O)CO)nc2c(=O)[nH]1 [Neopterin] | – | 8.8
6 | CCCCCC1=C(C)CCC1=O [Dihydrojasmone] | – | 40.7
7 | CC1(C)CC[C@]2(C)CC[C@]3(C)C(=CC[C@@H]4[C@@]5(C)CC[C@@H](O)[C@](C)(C(=O)O)[C@@H]5CC[C@]43C)[C@@H]2C1 [alpha-Boswellic acid] | – | 14
8 | C[C@@H]1C(=O)O[C@H]2C[C@@]34[C@H]5C[C@@H](C(C)(C)C)[C@]36[C@@H](OC(=O)[C@@H]6O)O[C@@]4(C(=O)O5)[C@]21O [Ginkgolide A] | – | 11.6
9 | CC[C@H](C)[C@H](N)C(=O)N[C@@H](C)C(=O)N[C@@H](CCCN=C(N)N)C(=O)N[C@@H](CCCN=C(N)N)C(=O)N[C@@H](Cc1cnc[nH]1)C(=O)N1CCC[C@H]1C(=O)N[C@@H](Cc1ccc(O)cc1)C(=O)N[C@@H](Cc1ccccc1)C(=O)N[C@@H](CC(C)C)C(=O)O [Kinetensin] (H-IARRHPYFL-OH) | – | 56.1
10 | CC1(C)CC[C@]2(C(=O)O)CC[C@]3(C)C(=CC[C@@H]4[C@@]5(C)CC[C@H](O[C@@H]6O[C@H](C(=O)O)[C@@H](O[C@@H]7O[C@@H](CO)[C@H](O)[C@H]7O)[C@H](O)[C@H]6O)C(C)(C)[C@@H]5CC[C@]43C)[C@@H]2C1 [Tarasaponin VI] | – | 4.4
11 | NC(=O)c1ncn([C@@H]2O[C@H](CO)[C@@H](O)[C@H]2O)c1N [AICAR (phosphate)] | – | 10.5
12 | CC1(C)[C@@H](O[C@@H]2OC[C@H](O[C@@H]3O[C@H](CO)[C@@H](O)[C@H](O)[C@H]3O[C@@H]3OC[C@@H](O)[C@H](O)[C@H]3O)[C@H](O)[C@H]2O[C@@H]2O[C@H](CO)[C@@H](O)[C@H](O)[C@H]2O)CC[C@]2(C)[C@H]3CC[C@]45OC[C@@]6(CC[C@](C)(C=O)C[C@H]64)[C@H](O)C[C@@]5(C)[C@]3(C)CC[C@@H]12 [Ardisiacrispin A] | – | 0.2
13 | COc1cc(CCO)ccc1O [Homovanillyl alcohol] | – | 6.3
14 | O=C(O)c1ccc[nH]1 [Pyrrole-2-carboxylic acid] | – | 6.8
15 | O=c1c(O)c(-c2ccc(O)c(O)c2)oc2cc(O)cc(O)c12 [Quercetin] | 23.2 | –
16 | CCCC(=O)C(=O)O [2-Oxovaleric acid] | – | 0
17 | C[Se]CC[C@H](N)C(=O)O [L-SelenoMethionine] | 10 | –
18 | CC[C@]12CCCN3CCc4c(n(c5ccccc45)C(=O)C1)[C@@H]32 [Vinburnine] | – | 22.5
19 | NC(=O)c1[nH]cnc1N [5-Amino-3H-imidazole-4-Carboxamide] | – | 6.7

Complete entries as entered above. Order of values: 229E Inhibition rate (229E Inhibition rate, 24 h) [%] | 229E Inhibition rate [%]
COc1cc(CCO)ccc1O [Homovanillyl alcohol] in the list: – | 6.3
CNCC(O)c1ccc(O)cc1 (centres unmarked) [p-Synephrine] in the list: 16.1 | –

More structures.

Row | SMILES | 229E Inhibition rate (229E Inhibition rate, 24 h) [%] | 229E Inhibition rate [%]
20 | COc1cc2c(cc1O)[C@@H](Cc1ccc(O)c(Oc3ccc(C[C@@H]4c5cc(OC)c(OC)cc5CCN4C)cc3)c1)N(C)CC2 [Daurisoline] | – | 24.5
21 | CC(=O)NCCCCN [N-Acetylputrescine hydrochloride] | – | 17.4
22 | CC(=O)O[C@H]1[C@H](O[C@H]2CC[C@]34C[C@]35CC[C@]3(C)[C@@H]([C@@]6(C)CC[C@@H](C(C)(C)O)O6)[C@@H](O)C[C@@]3(C)[C@@H]5C[C@H](O[C@@H]3O[C@H](CO)[C@@H](O)[C@H](O)[C@H]3O)[C@H]4C2(C)C)OC[C@@H](O)[C@@H]1O [Astragaloside II] | – | 11.5
23 | C[C@@H]1O[C@@H]1P(=O)(O)O [Fosfomycin (sodium)] | – | 11.3
24 | COc1c(C(C)C)cc2c(c1O)[C@@]1(C(=O)O)CCCC(C)(C)[C@@H]1CC2 [12-O-Methylcarnosic acid] | – | 16.8
25 | COC1[C@H](O)[C@@H](O)C(O)[C@H](O)[C@H]1O (stereo partly drawn) [L-Quebrachitol] | – | 10.1
26 | C[C@@H]1CCC=C2C(=O)C[C@H]3OOC(C)(C)[C@H]3[C@]21C [Nardosinone] | – | 6.2
27 | COC(=O)C1=CO[C@@H](C)[C@@H]2CN3CC[C@@]4(C(=O)Nc5ccccc54)[C@@H]3C[C@H]12 [Isopteropodine] | – | 13.3
28 | CCOC(=O)CCC(=O)O[C@H]1[C@H](O[C@@H]2[C@@H](C)[C@H](O[C@H]3C[C@@](C)(OC)[C@@H](O)[C@H](C)O3)[C@@H](C)C(=O)O[C@H](CC)[C@@](C)(O)[C@H](O)[C@@H](C)C(=O)[C@H](C)C[C@@]2(C)O)O[C@H](C)C[C@@H]1N(C)C [Erythromycin Ethylsuccinate] | – | 7.6
29 | COc1ccc(C(=O)O)cc1 [p-Anisic acid] | – | 5.8
30 | C/C=C(/C)C(=O)OC(C)(C)[C@@H]1Cc2c(ccc3ccc(=O)oc23)O1 [Columbianadin, columbianadin] | – | 29.6
31 | C[C@H](N)C(=O)O [L-Alanine] | – | 13.4
32 | CCC1=C[C@@H]2CN(C1)Cc1c([nH]c3ccccc13)[C@@](C(=O)OC)(c1cc3c(cc1OC)N(C)[C@H]1[C@@](O)(C(=O)OC)[C@H](OC(C)=O)[C@]4(CC)C=CCN5CC[C@]31[C@@H]54)C2 [Vinorelbine (ditartrate)] | – | 14.8
33 | O=c1c(O)c(-c2ccc(O)cc2)oc2c(O)c(O)cc(O)c12 [Herbacetin] | – | 0
34 | CC(C)=CCC[C@](C)(O[C@@H]1O[C@H](CO)[C@@H](O)[C@H](O)[C@H]1O)[C@H]1CC[C@]2(C)[C@@H]1[C@H](O)C[C@@H]1[C@@]3(C)CC[C@H](O)C(C)(C)[C@@H]3[C@@H](O[C@@H]3O[C@H](CO)[C@@H](O)[C@H](O)[C@H]3O[C@@H]3OC[C@@H](O)[C@H](O)[C@H]3O)C[C@]12C [Notoginsenoside R1] | – | 9.8
35 | OCc1ccccc1 [Benzyl alcohol] | – | 36.4
36 | C[C@H](CC[C@@]1(O)O[C@H]2C[C@H]3[C@@H]4CC[C@@H]5C[C@@H](O[C@@H]6O[C@H](CO)[C@@H](O)[C@H](O)[C@H]6O[C@@H]6O[C@H](CO)[C@@H](O)[C@H](O)[C@H]6O)CC[C@]5(C)[C@H]4CC[C@]3(C)[C@H]2[C@@H]1C)CO[C@@H]1O[C@H](CO)[C@@H](O)[C@H](O)[C@H]1O [Officinalisinin I] | – | 10.9
37 | CNCCC=C1c2ccccc2CCc2ccccc21 [Nortriptyline] | – | 0
38 | C[C@]12CC[C@@H](O)C[C@H]1CC[C@@H]1[C@@H]2C(=O)C[C@@]2(C)[C@H]1CC[C@]2(O)C(=O)CO [Tetrahydrocortisone] | – | 9.2

Row | SMILES | 229E Inhibition rate (229E Inhibition rate, 24 h) [%] | 229E Inhibition rate [%]
39 | C=C(C(=O)O)[C@@H]1CC[C@@H](C)[C@@H]2CCC(C)=C[C@@H]21 [Artemisic acid] | – | 7.1
40 | OC[C@H]1O[C@@H](OCCc2ccc(O)cc2)[C@H](O)[C@@H](O)[C@@H]1O [Salidroside] | – | 10
41 | C[C@H](O)[C@H]1CC[C@H]2[C@@H]3CC[C@@H]4C[C@H](O)CC[C@]4(C)[C@H]3CC[C@]12C [Pregnanediol] | – | 19.1
42 | CC(C)=CC(=O)C[C@H](C)c1ccc(C)cc1 [ar-Turmerone] | – | 53
43 | CCc1c2c(nc3ccc(OC(=O)N4CCC(N5CCCCC5)CC4)cc13)-c1cc3c(c(=O)n1C2)COC(=O)[C@]3(O)CC [Irinotecan (hydrochloride)] | – | 20.2
44 | CSCC[C@H](N)C(=O)O [L-Methionine] | – | 38.9
45 | CCCCCCCC/C=C\CCCCCCCC(=O)OCC(COC(=O)CCCCCCC/C=C\CCCCCCCC)OC(=O)CCCCCCCCCCCCCCC [1,3-Dioleoyl-2-palmitoylglycerol] | – | 12.3
46 | C=C1C(=O)O[C@H]2[C@H]1CCC(C)=C1CC[C@@](C)(O)[C@@H]12 [Micheliolide] | – | 11.4
47 | CCOC(=O)NCCCC(=O)NCCc1ccccc1 [Santacruzamate A] | – | 6.7
48 | COc1ccc2c(c1)[nH]c1c(C)nccc12 [Harmine] | 12.2 | –
49 | CC[C@H]1[C@@H]2C[C@H]3[C@@H]4N(C)c5ccccc5[C@]45C[C@@H]([C@H]2[C@H]5O)N3[C@@H]1O [Ajmaline] | – | 44.9
50 | O=C(O)c1cc(O)c(O)c(O)c1 [Gallic acid (hydrate)] | 34.3 | –
51 | Cc1ccc(C(C)C)cc2c(C)ccc1-2 [Guaiazulene] | – | 29.8
52 | C=C1CCC2(C(C)C)CC12 (centres unmarked) [Sabinene] | – | 9
53 | NC(=O)c1ncn([C@@H]2O[C@H](CO)[C@@H](O)[C@H]2O)c1O [Mizoribine] | – | 7.9
54 | Cn1cnc2c(ncn2[C@@H]2O[C@H](CO)[C@@H](O)[C@H]2O)c1=N [1-Methyladenosine] | – | 12.1
55 | CCc1cc(C(N)=S)ccn1 [Ethionamide] | – | 8.8
56 | COC(=O)Nc1ccc(C)c(NC(=O)OC)c1 [Obtucarbamate A] | – | 22.6

2 entries drawn at random from the list so far:
Row | SMILES | 229E Inhibition rate (229E Inhibition rate, 24 h) [%] | 229E Inhibition rate [%]
51 | Cc1ccc(C(C)C)cc2c(C)ccc1-2 [Guaiazulene] | – | 29.8
15 | O=c1c(O)c(-c2ccc(O)c(O)c2)oc2cc(O)cc(O)c12 [Quercetin] | 23.2 | –
